Chains of the proteins cited; added tags and fusions are not shown. Chains listed by the source or under a name are the forms on record and can include a tag or linker.
UniProt Q9W7C0, entry or part of it: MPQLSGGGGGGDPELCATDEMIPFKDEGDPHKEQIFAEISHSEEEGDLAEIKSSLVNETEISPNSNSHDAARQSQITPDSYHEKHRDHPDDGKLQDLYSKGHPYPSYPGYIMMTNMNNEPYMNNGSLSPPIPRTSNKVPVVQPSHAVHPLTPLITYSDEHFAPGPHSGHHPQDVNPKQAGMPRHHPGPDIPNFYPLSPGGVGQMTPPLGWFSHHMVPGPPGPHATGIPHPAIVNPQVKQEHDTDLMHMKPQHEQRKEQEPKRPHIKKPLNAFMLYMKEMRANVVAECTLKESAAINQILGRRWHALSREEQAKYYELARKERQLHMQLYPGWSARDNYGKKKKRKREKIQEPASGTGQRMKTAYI
Tcf7 (zebrafish), one chain, as listed by the source: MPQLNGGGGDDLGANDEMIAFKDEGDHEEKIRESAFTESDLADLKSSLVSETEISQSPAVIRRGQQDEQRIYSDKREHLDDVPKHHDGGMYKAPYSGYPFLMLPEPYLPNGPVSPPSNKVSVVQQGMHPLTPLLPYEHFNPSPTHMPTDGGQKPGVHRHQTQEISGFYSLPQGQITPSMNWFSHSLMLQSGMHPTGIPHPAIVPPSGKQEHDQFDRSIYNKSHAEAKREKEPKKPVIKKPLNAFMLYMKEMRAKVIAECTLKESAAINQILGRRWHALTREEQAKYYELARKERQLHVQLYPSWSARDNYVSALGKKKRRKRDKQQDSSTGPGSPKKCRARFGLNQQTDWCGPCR

According to PMC4728341:

Key:
Lef1-GST (zebrafish) = Lef1-GST (zebrafish) (UniProt Q9W7C0); test: EMSA; settings: 100 ng protein, EMSA per Hellman and Fried 2007, 4% (0.6-kb) or 6% (oligos) non-denaturing acrylamide gel, recombinant protein, residues 1-365, protein details: GST (pGEX4T-1), label: 32P
Tcf7 (zebrafish) = test: EMSA; settings: EMSA per Hellman and Fried 2007; 4% (0.6-kb) or 6% (oligos) non-denaturing acrylamide gel; pH and temperature not stated; recombinant protein; label: 32P
[1] = predominantly binds D2, pH and temperature not …

Sequence | binding result (Lef1-GST (zebrafish); [1]) | binding result (Lef1-GST (zebrafish); pH and temperature not stated) | binding result (Tcf7 (zebrafish))
GGGACTCTGTTTACAGGGGG (double strand) [D1] | binds more weakly | – | –
TACACCCACAGAGACATTTG (double strand) [D3] | binds more weakly | – | –
TATTTATCCATAGTTTAGAT (double strand) [D2m] | – | no binding | –
TATTTATCCTTTGTTTAGAT (double strand) [D2] | – | binds | binds

Construct, isoform or probe ends are uncertain for at least one entry. For some assays here: A negative result means that nothing was seen under these conditions. For some assays here: Weaker means in comparison with the reference protein, sequence or condition of that experiment. For some assays here: At least one verdict rests on a figure or table, not on a statement of the authors.
